{"source": "PubChem BioAssay AID1508597 (Cure First, 2020)", "purpose": "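Knock-downs altering ovarian cancer cell survival with or without PARP inhibitor rucaparib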 (primary screen)", "system": "human ovarian carcinoma lines grown from tumours: OCI-P5x (papillary serous) and OCI-C5x (clear cell)", "knock-down reagent": "siRNA pool against human genes, 1.25 pmol siRNA per well", "timing": "72 h or 96 h, depending on the cell culture", "challenge": "rucaparib 20 µM (about IC30) or vehicle, present until read-out", "rucaparib or vehicle": "Rucaparib", "cell line": "OCI-P5x (serous)", "detection": "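Luminescent ATP-based viability assay read 72 or 96 h after transfection, depending on culture, given as normalised percent viability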", "reading the numbers": "viability, normalised: higher = more viable cells remaining", "hit rule": "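Active when normalised viability falls below 80 percent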", "meaning of the calls": "active = viability under 80%; inactive = viability 80% or more", "note": "This is a random part of the about 2,100 reagents, under one of the conditions tested. 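Calls flag viability under 80% in either arm, not effects specific to rucaparib; the reference for percent is not stated.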 Some reagents were tested in more than one well and are listed for each. Not stated in the record: the 100% reference."}
{"gene": "ACVR1", "technical replicate": "1", "viability, normalised (%)": 114, "activity call": "inactive"}
{"gene": "ACVR1", "technical replicate": "2", "viability, normalised (%)": 106, "activity call": "inactive"}
{"gene": "ACVR1", "technical replicate": "3", "viability, normalised (%)": 97.3, "activity call": "inactive"}
{"gene": "TDRD6", "technical replicate": "1", "viability, normalised (%)": 68.4, "activity call": "active"}
{"gene": "TDRD6", "technical replicate": "2", "viability, normalised (%)": 61.1, "activity call": "active"}
{"gene": "TDRD6", "technical replicate": "3", "viability, normalised (%)": 55.5, "activity call": "active"}
{"gene": "EFNA5", "technical replicate": "1", "viability, normalised (%)": 84.9, "activity call": "inactive"}
{"gene": "EFNA5", "technical replicate": "2", "viability, normalised (%)": 50, "activity call": "active"}
{"gene": "EFNA5", "technical replicate": "3", "viability, normalised (%)": 75.3, "activity call": "active"}
{"gene": "PLCZ1", "technical replicate": "1", "viability, normalised (%)": 58.6, "activity call": "active"}
{"gene": "PLCZ1", "technical replicate": "2", "viability, normalised (%)": 57.3, "activity call": "active"}
{"gene": "PLCZ1", "technical replicate": "3", "viability, normalised (%)": 42.6, "activity call": "active"}
{"gene": "TERT", "technical replicate": "1", "viability, normalised (%)": 70.2, "activity call": "active"}
{"gene": "TERT", "technical replicate": "2", "viability, normalised (%)": 88, "activity call": "inactive"}
{"gene": "TERT", "technical replicate": "3", "viability, normalised (%)": 71.3, "activity call": "active"}
{"gene": "DGKB", "technical replicate": "1", "viability, normalised (%)": 107, "activity call": "inactive"}
{"gene": "DGKB", "technical replicate": "2", "viability, normalised (%)": 83.4, "activity call": "inactive"}
{"gene": "DGKB", "technical replicate": "3", "viability, normalised (%)": 112, "activity call": "inactive"}
{"gene": "USP22", "technical replicate": "1", "viability, normalised (%)": 63.4, "activity call": "active"}
{"gene": "USP22", "technical replicate": "2", "viability, normalised (%)": 57, "activity call": "active"}
{"gene": "USP22", "technical replicate": "3", "viability, normalised (%)": 57.8, "activity call": "active"}
{"gene": "CDK3", "technical replicate": "1", "viability, normalised (%)": 114, "activity call": "inactive"}
{"gene": "CDK3", "technical replicate": "2", "viability, normalised (%)": 108, "activity call": "inactive"}
{"gene": "CDK3", "technical replicate": "3", "viability, normalised (%)": 105, "activity call": "inactive"}
{"gene": "BUB3", "technical replicate": "1", "viability, normalised (%)": 63.8, "activity call": "active"}
{"gene": "BUB3", "technical replicate": "2", "viability, normalised (%)": 74.3, "activity call": "active"}
{"gene": "BUB3", "technical replicate": "3", "viability, normalised (%)": 66.4, "activity call": "active"}
{"gene": "RAD54L", "technical replicate": "1", "viability, normalised (%)": 37.5, "activity call": "active"}
{"gene": "RAD54L", "technical replicate": "1", "viability, normalised (%)": 67.5, "activity call": "active"}
{"gene": "RAD54L", "technical replicate": "2", "viability, normalised (%)": 41.9, "activity call": "active"}
{"gene": "RAD54L", "technical replicate": "2", "viability, normalised (%)": 79.1, "activity call": "active"}
{"gene": "RAD54L", "technical replicate": "3", "viability, normalised (%)": 71.9, "activity call": "active"}
{"gene": "RAD54L", "technical replicate": "3", "viability, normalised (%)": 41.2, "activity call": "active"}
{"gene": "PSKH1", "technical replicate": "1", "viability, normalised (%)": 90.3, "activity call": "inactive"}
{"gene": "PSKH1", "technical replicate": "2", "viability, normalised (%)": 98.2, "activity call": "inactive"}
{"gene": "PSKH1", "technical replicate": "3", "viability, normalised (%)": 74.2, "activity call": "active"}
{"gene": "CDH1", "technical replicate": "1", "viability, normalised (%)": 69.3, "activity call": "active"}
{"gene": "CDH1", "technical replicate": "2", "viability, normalised (%)": 60.6, "activity call": "active"}
{"gene": "CDH1", "technical replicate": "3", "viability, normalised (%)": 60.9, "activity call": "active"}
{"gene": "TIMM50", "technical replicate": "1", "viability, normalised (%)": 56, "activity call": "active"}
{"gene": "TIMM50", "technical replicate": "2", "viability, normalised (%)": 50.5, "activity call": "active"}
{"gene": "TIMM50", "technical replicate": "3", "viability, normalised (%)": 38.5, "activity call": "active"}

A stretch of the results above, for reference:
{"gene": "TDRD6", "technical replicate": "2", "viability, normalised (%)": 61.1, "activity call": "active"}
{"gene": "TDRD6", "technical replicate": "3", "viability, normalised (%)": 55.5, "activity call": "active"}
